According to PubChem BioAssay AID1347426 (Functional Genomics Laboratory (NCATS/FGL), 2020):
Screen size: about 31,000 sequences; about 1,400 (4.5%) were called active.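 Rule for the calls: active = median seed-adjusted z-score above 1 or below -1; inactive = the rest.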 Some of the results follow.

Assay: Novel Modifiers of Survival Motor Neuron (SMN) Protein: Gene Identification via Genome-wide siRNA Screen;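 note: luminescence tracks full-length SMN protein made from the SMN2 reporter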
Conditions: HEK293T SMN2-luciferase reporter, siRNA knockdown, 72 h; actives lie on both sides
Summary of the method: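 Genome-wide siRNA screen (10418 genes, 3 siRNAs each, 1 pmol per well) by reverse transfection in HEK293T cells stably carrying an SMN2-luciferase reporter; luminescence after 72 hours, normalized to negative-control siRNA, log10-transformed, MAD-scored.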

Sequence	median seed-adjusted z-score
GCAGUGAUCUAGUCUCUUUTT against GLRX	inactive: -0.0561
CGCGUACUACGACACUGAATT against EIF3F	inactive: -0.0214
GAACGAUUCAGAAAGAGCATT against RAB33B	inactive: -0.758
CUUCAUUACUUAAGUCCAATT against FAM12A	inactive: 0.08
GCCGGAAGAUUAUGCGGAATT against PNPLA6	inactive: 0.309
CCUCAAUCAGAAUCCAGAATT against STRADB	inactive: 0.21
GCAUGAGAAUCGACACCCATT against GABRR1	inactive: 0.286
CGAUGUCUGUGGGUAUAAUTT against TFCP2	inactive: 0.14
GGAGACAGAGGAUAGUGAATT against CAND2	inactive: 0.0936
GCCUGAAUGGUACUAUACATT against GSTO2	inactive: 0.142
CCACAUGACCAAGCAUACATT against ZNF142	inactive: 0.111
GGAUCUGUUUGACAUGCGATT against SHC2	inactive: -0.207
GGAAGGCAUUACUCACUUATT against SIRT3	inactive: -0.341
GCUUCAAGUUGUUCGGACATT against ZNF238	inactive: -0.491
UAACCCUGCUCGGUCCUUUTT against AQP1	inactive: 0.274
ACGUGUCGGUCAAAGCUGATT against DHH	inactive: 0
GACUUUGACAAAGCGAUUATT against SPTAN1	inactive: -0.233
GCCGAGAUCUGACAACAAATT against HDHD1A	inactive: -0.937
GAACUUUGACCGAGCCGUATT against FGD3	inactive: 0.245
GUCUCAUCGUUUCCACAGATT against RNF4	inactive: 0.787
ACAUCGACUUGACUAUUGUTT against SDPR	inactive: -0.0738
CACCUACGUUUGCACAGAATT against MARK4	inactive: -0.675

Sequence	median seed-adjusted z-score
CCACCAGCGUGAUCAUUGUTT against GALNT6	inactive: -0.287
CAGUCAAUGUUGUUCAGUUTT against GARS	inactive: 0.138
GAAUAUUCCUAUAGUGAUATT against MYOZ2	inactive: 0.315
GCUGUAAAACUGAACUGCATT against GNE	inactive: 0.393
CUACCACCUUAGUCGUUUATT against GPR137B	inactive: -0.0897
AGAACCGAGUGGUCAGCUATT against CCL24	inactive: 0
ACAAGCUUCACAAUAUUAATT against GATA3	inactive: -0.197
UCAGGGACGUGGUAUCUGATT against LCN1	inactive: 0.0607
AUCCAGUUGACGAAAGUAATT against PCDH11X	inactive: -0.203
CCCGAAGAACUGAACUUAATT against SULT2A1	inactive: -0.123
AAUGCAUUGUGAACCCAUUTT against GNGT2	inactive: -0.289
GGAUGACAGCGGUAAGGAUTT against HSP90AB1	inactive: 0
GUAUAGAGAUGCAAGUUGATT against HTR2C	inactive: -0.115
GCAAUUAAAUCGGAUACUUTT against ANXA3	inactive: -0.156
GCAUAACACCUAUCUCACUTT against PLCB3	inactive: 0
AGCAGGCUUUGAUCAUUGATT against FKBP6	active: -1.12
GCACGCUACUUUUACGCGATT against NTNG1	inactive: 0.0823
CUGGUACAGUGGACGGAAATT against ATP9A	inactive: 0.499
GGAUGUAUGACAUCUGUAATT against STC1	active: -1.36
GCAUUCUGCAUUCAAGGAATT against ADPGK	inactive: 0.373
GGAUAUAUCUUUGCGGUUUTT against TOPBP1	inactive: 0.0888
CCUCAGAGGUUUGACCGAATT against B4GALT1	inactive: 0

Sequence	median seed-adjusted z-score
AGACCCUUCUUAUGACUCATT against FLI1	inactive: 0.255
CCAAAUCAUUGAUCACAGUTT against GPR39	inactive: 0.0998
GCUCAUUAGAUUAUCCAGATT against C3AR1	inactive: -0.916
ACAAGUUCCGUAUCGUGAATT against SLC9A1	inactive: 0
CACAGGUCUUGGUAACAAATT against PLEKHF1	inactive: 0.055
GAUGACUUUUGAUAGUGAATT against ODC1	active: -1.64
CUACAAUACCACAAACAAUTT against CRHR1	inactive: -0.67
GUCUGGUCAUAACAACCAATT against KCNAB1	inactive: 0.721
AGAUGAAUAUUACACGGAATT against COL5A1	inactive: -0.00475
GCCUCUUGCAAUGCGGAAATT against GATA4	inactive: -0.24
GAAGGACCAUAGACAGAGATT against GRK5	inactive: -0.377
UGCUUUACCUAACUACAGATT against SEMA7A	inactive: 0.0522
GGACAUCGUCUCUUCUUAUTT against HEXA	inactive: -0.551
CAUUAUUCAGCCUAACUAUTT against MTG1	inactive: -0.19
CCACUACACCUUCUACUUUTT against PAQR8	inactive: 0
GUGAUGUCAUUAGGCAGAATT against CRIP3	active: 1.7
CCUCAGUGUGGGUAUAAGATT against HIF1A	inactive: 0.228
CAAGAUCAUUCAGCAAUAATT against PIP5KL1	inactive: -0.819
CAGCCGCUACUCAAAGAAATT against BST1	inactive: -0.28
GCGGAUUAAAUGAUGAUUATT against ADAMTS18	inactive: 0.824
GUGUUAACUCUAAUUUACATT against 5-Mar	inactive: 0
CGAUUACUCUUCUUCUGCATT against SYPL1	inactive: -0.457

Retrieved one by one from above, 5 records:
Sequence	median seed-adjusted z-score
GAAUAUUCCUAUAGUGAUATT against MYOZ2	inactive: 0.315
GCAUUCUGCAUUCAAGGAATT against ADPGK	inactive: 0.373
GAUGACUUUUGAUAGUGAATT against ODC1	active: -1.64
GUGUUAACUCUAAUUUACATT against 5-Mar	inactive: 0
GGAUGACAGCGGUAAGGAUTT against HSP90AB1	inactive: 0

Carrying on:

Sequence	median seed-adjusted z-score
GGACAUUCGUCAGAUUUAUTT against TEAD1	active: 1.31
GGCUCUCAGAUUGUUGACATT against GABARAPL2	inactive: 0.528
GUACUGACUUUAACAUAGATT against FUT10	inactive: -0.629
GGACCGCAGUAAACUUCGATT against MIZF	inactive: 0.365
GCCCUCUGUUGGAUAUCUATT against AZIN1	active: -1.14
AGCCUGUACUUAUGACCGATT against ACTRT1	inactive: 0
GCUCGCAUCUAAACACCUUTT against LIG4	inactive: 0.576
CCAGCUUCCUAACCCAAGATT against ACY3	inactive: 0.568
CCACAUCCGAGACAAUCCATT against CRHR2	inactive: -0.211
CAUCAGGAAUUACGGGACATT against GPR123	inactive: 0
GGGUUGGAUGUGCUCAUUUTT against NOP14	inactive: -0.344
GCAUCGGCAUUGAAGGCUUTT against ALOX15B	inactive: 0.156
GGGUCCAUUUGAUAGCCUATT against SNX16	inactive: -0.111
GGAUGUUUAUUACCGGGAUTT against RPN1	inactive: -0.375
CUACUGGAGCAACACUGUATT against NDUFA4	inactive: 0
GGAAUUCGCUUUCCUGAAATT against BLVRA	inactive: 0.212
GGAUGGUAAGUGGGCAAGATT against DDI1	inactive: 0.259
CGUGGACAGCUGCAGAAAATT against EDIL3	inactive: 0
CAAGGUCUCCUGUGCUGAATT against MYOG	inactive: -0.0972
CAUCAGUCUUCGAACUCAATT against GPAM	inactive: 0.237
GAUACAGUGUUGAAAAGUUTT against CST7	inactive: 0.303
CCUACAACAUUGUCCUUCUTT against CCR5	inactive: -0.0281

Sequence	median seed-adjusted z-score
CAGCAACCCGGGUCAUGAATT against KIRREL	inactive: -0.74
UCUUCGUUCUGAUUCCGGUTT against CLDN17	inactive: 0
GGUCGGUGAGAGGAAUAAATT against LSAMP	inactive: -0.12
GAAUUUGUUCAUUAUCGUATT against UBE3A	inactive: 0.0949
GAGGUGAUCCGGGUCUACATT against EHD3	inactive: 0.569
GGACCCAACCUCAAUGAAATT against ARFIP2	inactive: 0.748
CGAUACCGGCUGAUGCUAATT against PTPRB	inactive: -0.0981
GUAAUACGAGGAAAUAGUATT against SNRPG	active: -3.09
GACUAGGAAUAGAUUUACATT against VRK2	inactive: -0.183
GGACCACAAUGUACGGAAATT against ATP13A5	inactive: 0.241
GGAUGUACUUCUAUGAGUATT against B3GALNT1	inactive: 0.128
AGAUGAUCAGGGAGGCUGATT against CALM3	inactive: 0.225
GGUUAAGCAGCGCUUUUCATT against TESSP5	inactive: 0
GCCUGAAUGCAGCCCAGUUTT against SP2	inactive: -0.617
GGCAGAAAUGUAAUAUUGATT against DCTN6	inactive: 0.211
GGAUUUGGAACUUAUUAAATT against STX12	inactive: -0.797
GGAGGGUUUCUAUCUUACUTT against WRN	inactive: -0.00482
CCCUUGAUCGGGACAAUUUTT against KIFAP3	inactive: 0.403
CGGGAGAAGUCCUACCUGUTT against KIF19	inactive: 0.342
GGAUAGUUGUGGUAAGAAUTT against SRP14	inactive: 0.0824
